From the supplement of paper PMC12823440, “Inhibitors supercharge kinase turnover through native proteolytic circuits” (Nature, 2025)
Structures can show the parent of a compound that is named as a salt. The list shows a part of the results. Hit calls seldom repeat between salt and free forms of one compound.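 Kinases, fused to nanoluciferase, were expressed in K562 cells; luminescence was measured every 4 h from 2 to 18 h as percent of control (DMSO = 100%, positive control = 0%). A time point is decreased if signal falls significantly (2 sigma). Hits were called by the authors by a rule that is not shown; the count of time points alone does not decide it.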

Amino acid sequences for entries named in this document (tags omitted).
UniProt Q01974, whole entry: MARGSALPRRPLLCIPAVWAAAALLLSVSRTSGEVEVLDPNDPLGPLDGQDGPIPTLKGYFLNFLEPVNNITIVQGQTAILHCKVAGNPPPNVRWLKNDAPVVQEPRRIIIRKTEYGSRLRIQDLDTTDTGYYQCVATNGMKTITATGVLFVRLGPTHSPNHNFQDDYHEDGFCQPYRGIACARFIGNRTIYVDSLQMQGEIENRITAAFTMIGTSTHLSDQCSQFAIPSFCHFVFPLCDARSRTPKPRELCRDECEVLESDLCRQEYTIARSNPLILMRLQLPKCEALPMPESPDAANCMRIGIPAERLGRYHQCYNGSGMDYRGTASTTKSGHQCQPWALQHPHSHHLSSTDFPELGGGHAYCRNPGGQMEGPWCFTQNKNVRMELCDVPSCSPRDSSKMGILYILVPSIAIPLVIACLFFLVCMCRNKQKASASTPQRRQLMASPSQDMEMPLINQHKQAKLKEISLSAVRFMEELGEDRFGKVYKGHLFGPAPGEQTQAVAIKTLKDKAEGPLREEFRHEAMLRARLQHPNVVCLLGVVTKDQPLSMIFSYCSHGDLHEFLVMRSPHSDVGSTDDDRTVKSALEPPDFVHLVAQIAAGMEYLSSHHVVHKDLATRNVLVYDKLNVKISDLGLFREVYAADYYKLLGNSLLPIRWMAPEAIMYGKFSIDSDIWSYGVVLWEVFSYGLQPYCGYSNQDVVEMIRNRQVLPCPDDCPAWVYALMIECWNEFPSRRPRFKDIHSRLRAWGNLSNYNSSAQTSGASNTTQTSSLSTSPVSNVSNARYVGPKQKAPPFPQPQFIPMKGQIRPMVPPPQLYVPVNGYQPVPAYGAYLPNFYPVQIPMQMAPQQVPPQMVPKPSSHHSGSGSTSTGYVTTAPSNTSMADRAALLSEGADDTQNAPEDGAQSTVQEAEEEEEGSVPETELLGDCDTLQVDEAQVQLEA

Biological target: ROR2 (UniProt Q01974)
Assay: kinase-Nluc reporter destabilization hit call (1 = scored as downregulated) (binary); higher = compound decreases kinase abundance
Conditions: K562; 2-18 h

kinase-Nluc reporter destabilization hit call, inactive:
Cc1cc(C)nc(NS(=O)(=O)c2ccc(NC(=S)NC(=O)COc3ccc(Br)cc3Cl)cc2)n1 (2.5 µM) 0
Oc1ccc(/C=C/c2cc(O)cc(O)c2)cc1 [Resveratrol] (10 µM) 0
COc1ccc(S(=O)(=O)NCc2ccc(C(=O)NCCc3ccc(Cl)cn3)cc2)cc1 (10 µM) 0
O=c1[nH]c(C2CCCN2)nc2c1oc1ccc(Cl)cc12 (stereo not drawn) [XL413 (hydrochloride)] (10 µM) 0
O=C(NC1CCOCC1)c1ccc(-c2cc(-c3c[nH]nc3-c3ccccn3)ccn2)cc1 (10 µM) 0
N#Cc1c2nc3ccccc3nc2n2ccc(NC(=O)c3cccs3)cc12 (10 µM) 0
COCCNc1cc(NC(=O)N2CCCc3cc(CN4CCN(C)CC4=O)c(C=O)nc32)ncc1C#N [Roblitinib] (10 µM) 0
CN(C)CCC=C1c2ccccc2CCc2ccccc21 [Amitriptyline (hydrochloride)] (2.5 µM) 0
Cn1cc(C2=C(c3cn(CCCSC(=N)N)c4ccccc34)C(=O)NC2=O)c2ccccc21 [Ro 31-8220 (mesylate)] (2.5 µM) 0
CC(C)(C)n1nc(Cc2ccccc2O)c2c(N)ncnc21 (10 µM) 0
COc1cc2ncnc(Nc3ccc(F)c(Cl)c3)c2cc1NC(=O)/C=C/CN1CCCCC1 [Dacomitinib] (10 µM) 0
C[C@@H]1COCCN1c1nc(-c2cnc(N)cc2C(F)F)nc(N2[C@H](C)COC[C@@H]2C)n1 (2.5 µM) 0
COc1cc2ncnc(Nc3ccccc3)c2cc1OC (10 µM) 0
O=C(Nc1nc2ccccc2[nH]1)c1cccc([N+](=O)[O-])c1 [IRAK-4 protein kinase inhibitor 2] (10 µM) 0
Cc1ccc(Oc2nc3cc(-c4ccc(-c5ccccc5)cc4)c(Cl)cc3[nH]2)cc1C(=O)O (10 µM) 0
c1ccc(-c2nc3c(c(-n4ccc5cnccc54)n2)CCC3)nc1 (10 µM) 0
Cn1ncc2cc(-c3cnc(N)c(Cl)c3N3CCC4(CCNC4=O)CC3)ccc21 (10 µM) 0
C[C@H](Nc1ncnc2nc[nH]c12)c1cc2cccc(Cl)c2c(=O)n1-c1ccccc1 [Duvelisib] (10 µM) 0
CS(=O)(=O)c1ccc(-c2cnc(N)c(-c3ccc(C(F)(F)F)nc3)c2)cc1 (10 µM) 0
c1cc(NC2CCNCC2)nc(-c2cnc3ccccn23)c1 [IRAK inhibitor 1] (10 µM) 0
C[C@@H]1CCNC(=O)c2cc3ccc(C(=O)Nc4nc5ccccc5n4CCCN(C)C)cc3n21 (10 µM) 0
Cc1cnc(NC2CCOCC2)nc1-n1cnc(C(=O)N[C@H](CN)c2cc(F)cc(Cl)c2)c1 (10 µM) 0
O=C(NCc1cccc(O)c1)Nc1nc(-c2ccncc2)cs1 (10 µM) 0
Cc1cc2sc(NC(=O)Cc3ccccc3)nc2cc1Cl (10 µM) 0
COc1cc2ncnc(-n3nc(-c4ccccn4)nc3N)c2cc1OC (10 µM) 0
O=C(N[C@@H](C1CC1)C(F)(F)F)c1cc(-c2cnn3cc(-c4ccc(F)cc4)cnc23)cs1 (10 µM) 0
O=C1/C(=C\c2ccc(Cl)cc2)C=C(c2ccccc2)N1c1ccc(O)cc1 (2.5 µM) 0
CNC(=O)c1ccccc1Nc1nc(Nc2ccc3c(c2OC)CCC[C@H](N2CCN(CCO)CC2)C3)ncc1Cl (10 µM) 0
C=CC(=O)Nc1cccc(CNc2nc(Nc3ccc(N4CCN(C)CC4)cc3OC)ncc2Cl)c1 (10 µM) 0
CC(C)=CCc1c(-c2ccc(O)cc2O)oc2c3c(cc(O)c2c1=O)OC(C)(C)C=C3 [Morusin] (2.5 µM) 0
CN1CCC(c2ccccc2CC(C)(C)Nc2nc(N3CCOCC3)nc(-n3c(C(F)F)nc4ccccc43)n2)CC1 [Zandelisib] (10 µM) 0
CC(C)(O)[C@H]1CC[C@H](Nc2ccc3ncc(-c4cccc(C(F)(F)F)c4)n3n2)CC1 (10 µM) 0
CC(C)c1cc(/C=C(\C#N)C(=O)NCCCc2ccccc2)cc(C(C)C)c1O (10 µM) 0
CCOC(=O)N1C/C(=C/c2ccccc2F)C(=O)/C(=C\c2ccccc2F)C1 (2.5 µM) 0
C=CC(=O)Nc1cccc(-c2cccc3cnc(Nc4ccc(N5CCN(CCO)CC5)c(F)c4F)nc23)c1 [Olafertinib] (2.5 µM) 0
COc1cc(N2CCOCC2)ccc1Nc1ncc(Cl)c(Nc2ccccc2NS(C)(=O)=O)n1 (2.5 µM) 0
Nc1n[nH]c2nc(-c3ccc(NS(=O)(=O)c4cc(Cl)ccc4F)cc3)cnc12 (10 µM) 0
Nc1c(C(=O)NCc2ccc(C(=O)NCCCC3CCCCC3)cc2)cnn1-c1ccccc1 (2.5 µM) 0

Already shown: an excerpt of the list.
kinase-Nluc reporter destabilization hit call, inactive:
CNC(=O)c1ccccc1Nc1nc(Nc2ccc3c(c2OC)CCC[C@H](N2CCN(CCO)CC2)C3)ncc1Cl (10 µM) 0
C=CC(=O)Nc1cccc(CNc2nc(Nc3ccc(N4CCN(C)CC4)cc3OC)ncc2Cl)c1 (10 µM) 0
